Our source for the binding values is article PMC12266122.

By UniProt entry, the sequences of proteins in these tests, tags left out.
UniProt Q9H4A3: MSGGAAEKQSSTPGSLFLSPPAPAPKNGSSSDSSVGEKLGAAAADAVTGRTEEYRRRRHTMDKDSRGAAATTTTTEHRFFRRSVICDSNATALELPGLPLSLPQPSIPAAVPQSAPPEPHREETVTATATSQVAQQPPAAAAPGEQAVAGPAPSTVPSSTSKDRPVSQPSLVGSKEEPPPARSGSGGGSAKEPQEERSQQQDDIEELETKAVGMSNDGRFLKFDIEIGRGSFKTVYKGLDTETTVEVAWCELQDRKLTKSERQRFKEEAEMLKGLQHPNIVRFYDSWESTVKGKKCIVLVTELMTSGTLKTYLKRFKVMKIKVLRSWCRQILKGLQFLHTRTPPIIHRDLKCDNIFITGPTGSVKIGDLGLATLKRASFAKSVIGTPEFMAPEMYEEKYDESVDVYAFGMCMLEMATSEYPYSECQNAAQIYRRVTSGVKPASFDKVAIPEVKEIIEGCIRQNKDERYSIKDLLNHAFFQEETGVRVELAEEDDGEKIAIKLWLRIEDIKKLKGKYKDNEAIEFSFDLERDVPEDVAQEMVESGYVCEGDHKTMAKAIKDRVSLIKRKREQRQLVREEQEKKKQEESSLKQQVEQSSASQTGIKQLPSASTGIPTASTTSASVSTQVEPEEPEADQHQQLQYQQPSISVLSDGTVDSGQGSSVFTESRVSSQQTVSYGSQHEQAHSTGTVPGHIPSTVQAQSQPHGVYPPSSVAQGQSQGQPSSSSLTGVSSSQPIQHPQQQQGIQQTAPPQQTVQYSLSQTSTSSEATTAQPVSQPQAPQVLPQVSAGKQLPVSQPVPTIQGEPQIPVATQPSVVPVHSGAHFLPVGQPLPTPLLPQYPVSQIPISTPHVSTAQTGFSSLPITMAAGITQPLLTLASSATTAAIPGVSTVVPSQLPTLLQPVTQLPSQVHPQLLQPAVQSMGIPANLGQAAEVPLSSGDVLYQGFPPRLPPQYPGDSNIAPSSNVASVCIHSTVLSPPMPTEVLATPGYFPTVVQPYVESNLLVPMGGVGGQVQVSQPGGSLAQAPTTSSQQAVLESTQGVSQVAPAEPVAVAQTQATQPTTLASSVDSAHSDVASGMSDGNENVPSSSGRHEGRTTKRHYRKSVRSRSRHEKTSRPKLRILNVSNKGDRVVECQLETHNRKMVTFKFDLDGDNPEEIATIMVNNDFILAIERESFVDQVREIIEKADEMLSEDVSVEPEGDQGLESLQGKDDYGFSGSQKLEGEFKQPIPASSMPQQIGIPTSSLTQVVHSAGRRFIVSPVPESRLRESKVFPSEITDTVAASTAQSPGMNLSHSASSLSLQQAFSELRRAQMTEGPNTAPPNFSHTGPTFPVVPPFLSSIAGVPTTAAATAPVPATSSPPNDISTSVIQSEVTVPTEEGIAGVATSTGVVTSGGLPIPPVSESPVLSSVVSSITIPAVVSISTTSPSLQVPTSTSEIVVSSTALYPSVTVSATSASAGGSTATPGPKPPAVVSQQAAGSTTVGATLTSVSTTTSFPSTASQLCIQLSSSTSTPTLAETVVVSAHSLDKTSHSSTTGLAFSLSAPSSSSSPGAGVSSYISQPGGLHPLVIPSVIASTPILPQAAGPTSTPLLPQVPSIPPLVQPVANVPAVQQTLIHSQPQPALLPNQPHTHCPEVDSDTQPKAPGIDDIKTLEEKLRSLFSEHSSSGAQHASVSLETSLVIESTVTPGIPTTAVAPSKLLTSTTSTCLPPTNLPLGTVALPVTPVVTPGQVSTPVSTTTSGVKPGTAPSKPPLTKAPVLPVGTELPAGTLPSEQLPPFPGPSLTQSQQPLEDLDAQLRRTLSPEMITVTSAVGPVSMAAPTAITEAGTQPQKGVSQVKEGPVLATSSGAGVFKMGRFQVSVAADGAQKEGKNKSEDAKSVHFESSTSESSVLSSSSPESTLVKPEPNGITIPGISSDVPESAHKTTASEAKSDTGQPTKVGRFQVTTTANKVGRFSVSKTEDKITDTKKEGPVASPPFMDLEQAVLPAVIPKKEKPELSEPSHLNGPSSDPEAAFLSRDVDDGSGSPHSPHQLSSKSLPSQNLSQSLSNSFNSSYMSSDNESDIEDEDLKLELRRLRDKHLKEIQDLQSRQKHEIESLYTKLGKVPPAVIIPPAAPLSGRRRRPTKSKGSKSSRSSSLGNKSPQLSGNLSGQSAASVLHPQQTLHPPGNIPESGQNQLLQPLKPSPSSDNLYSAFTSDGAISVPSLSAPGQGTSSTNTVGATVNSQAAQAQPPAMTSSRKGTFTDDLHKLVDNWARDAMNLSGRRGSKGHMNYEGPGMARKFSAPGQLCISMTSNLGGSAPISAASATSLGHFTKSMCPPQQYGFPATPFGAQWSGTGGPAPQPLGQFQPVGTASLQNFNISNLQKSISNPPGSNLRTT
UniProt Q9UHY1: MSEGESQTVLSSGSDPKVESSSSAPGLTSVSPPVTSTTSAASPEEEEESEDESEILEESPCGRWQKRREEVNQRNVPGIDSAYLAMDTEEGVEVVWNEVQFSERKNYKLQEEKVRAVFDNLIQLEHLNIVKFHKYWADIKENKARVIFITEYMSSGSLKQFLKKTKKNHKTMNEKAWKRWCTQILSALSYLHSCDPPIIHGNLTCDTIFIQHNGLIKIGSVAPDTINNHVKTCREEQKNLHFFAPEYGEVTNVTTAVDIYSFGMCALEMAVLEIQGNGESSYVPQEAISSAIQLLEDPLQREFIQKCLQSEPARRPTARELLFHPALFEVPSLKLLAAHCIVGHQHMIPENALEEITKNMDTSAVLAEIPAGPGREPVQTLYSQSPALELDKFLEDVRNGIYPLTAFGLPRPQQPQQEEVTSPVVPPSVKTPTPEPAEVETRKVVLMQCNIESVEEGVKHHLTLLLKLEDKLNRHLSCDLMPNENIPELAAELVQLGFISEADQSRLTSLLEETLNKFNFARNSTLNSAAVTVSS

Experiment [1] deals with GFP-WNK1 (N-terminal GFP knock-in at the endogenous WNK1 locus) (human (endogenous in HEK293)) (UniProt Q9H4A3). Put plainly: proximity labelling; GFP-WNK1 KI and WT HEK293 cells expressing Flag-TurboID-aGFP6M; 0.5 mM biotin with or without 0.5 M sorbitol for 5 min; streptavidin enrichment from lysate; DIA mass spectrometry.
Experiment [2] shares this target. In words: proximity labelling; GFP-WNK1 TurboID cells with or without 0.5 M sorbitol; streptavidin magnetic bead pull-down from 2 mg lysate; immunoblot (Fig. 1F). (In general: In western blotting, separated proteins are transferred to a membrane and probed.)
The target in experiment [3] is GFP-NRBP1 (N-terminal GFP knock-in at the endogenous NRBP1 locus) (human (endogenous in HEK293)) (UniProt Q9UHY1). Put plainly: affinity purification with mass spectrometry; GFP-NRBP1 KI and WT HEK293 cells with or without 0.5 M sorbitol for 30 min; lysis in 20 mM Hepes pH 7.5, 150 mM NaCl, 0.5% NP-40; GFP-Trap magnetic beads, 4°C, 2 hours; DIA mass spectrometry.

Results are given in words; binding and its absence hold for the method and conditions named. In cells and extracts the contact can be indirect. Here binding means that the protein was enriched with, or labelled near, the bait; the list need not be complete.

B1: TSC22D2, endogenous (protein, UniProt O75157 1-780)
chain: MSKMPAKKKSCFQITSVTTAQVATSITEDTESLDDPDESRTEDVSSEIFDVSRATDYGPEEVCERSSSEETLNNVGDAETPGTVSPNLLLDGQLAAAAAAPANGGGVVSARSVSGALASTLAAAATSAPAPGAPGGPQLAGSSAGPVTAAPSQPPTTCSSRFRVIKLDHGSGEPYRRGRWTCMEYYERDSDSSVLTRSGDCIRHSSTFDQTAERDSGLGATGGSVVVVVASMQGAHGPESGTDSSLTAVSQLPPSEKMSQPTPAQPQSFSVGQPQPPPPPVGGAVAQSSAPLPPFPGAATGPQPMMAAAQPSQPQGAGPGGQTLPPTNVTLAQPAMSLPPQPGPAVGAPAAQQPQQFAYPQPQIPPGHLLPVQPSGQSEYLQQHVAGLQPPSPAQPSSTGAAASPATAATLPVGTGQNASSVGAQLMGASSQPSEAMAPRTGPAQGGQVAPCQPTGVPPATVGGVVQPCLGPAGAGQPQSVPPPQMGGSGPLSAVPGGPHAVVPGVPNVPAAVPAPSVPSVSTTSVTMPNVPAPLAQSQQLSSHTPVSRSSSIIQHVGLPLAPGTHSAPTSLPQSDLSQFQTQTQPLVGQVDDTRRKSEPLPQPPLSLIAENKPVVKPPVADSLANPLQLTPMNSLATSVFSIAIPVDGDEDRNPSTAFYQAFHLNTLKESKSLWDSASGGGVVAIDNKIEQAMDLVKSHLMYAVREEVEVLKEQIKELVERNSLLERENALLKSLSSNDQLSQLPTQQANPGSTSQQQAVIAQPPQPTQPPQQPNVSSA
For B1, the binding entry in experiment [1] and in experiment [2] was “binds” in each case.

B2: TSC22D4, endogenous (protein, UniProt Q9Y3Q8 1-395)
chain: MSGGKKKSSFQITSVTTDYEGPGSPGASDPPTPQPPTGPPPRLPNGEPSPDPGGKGTPRNGSPPPGAPSSRFRVVKLPHGLGEPYRRGRWTCVDVYERDLEPHSFGGLLEGIRGASGGAGGRSLDSRLELASLGLGAPTPPSGLSQGPTSWLRPPPTSPGPQARSFTGGLGQLVVPSKAKAEKPPLSASSPQQRPPEPETGESAGTSRAATPLPSLRVEAEAGGSGARTPPLSRRKAVDMRLRMELGAPEEMGQVPPLDSRPSSPALYFTHDASLVHKSPDPFGAVAAQKFSLAHSMLAISGHLDSDDDSGSGSLVGIDNKIEQAMDLVKSHLMFAVREEVEVLKEQIRELAERNAALEQENGLLRALASPEQLAQLPSSGVPRLGPPAPNGPSV
For the molecule B2, the binding entry in experiment [3], in experiment [1] and in experiment [2] was “binds” in each case.
